Experimental data reported in ChEMBL document CHEMBL4431325, “Design and Synthesis of Orally Bioavailable 4-Methyl Heteroaryldihydropyrimidine Based Hepatitis B Virus (HBV) Capsid Inhibitors” (J Med Chem, 2016).

Test: physchem
Settings: octanol/water

Question: For `COC(=O)C1=C(CN2CC(F)(F)C[C@H]2C(=O)O)NC(c2nccs2)=N[C@@]1(C)c1ccc(F)cc1`, which logD is on record?
Answer: 0.25
